Measurements from patent US10993935B2, “Compositions and methods for treatment of lung infections” (priority 2018, dated 2021).
At least one compound was matched to its structure with a doubt left.

Test system: P. aeruginosa PAO581 (PAO1mucA25)
Assay: NIH drug library screen for inhibition of growth, mucoidy and PalgD-lacZ colour
Assay type: cell-based, Pseudomonas aeruginosa

Structure (SMILES) | Growth 2 μM (drug at 2 μM, PAO581 on PIA) | Growth 10 μM (drug at 10 μM, PAO581 on PIA) | Growth 50 μM (drug at 50 μM, PAO581 on PIA) | Mucoidy 10 μM (drug at 10 μM, PAO581 with pLP170-PalgD-lacZ on PIA + X-gal) | Color 10 μM (drug at 10 μM, X-gal colour of PalgD-lacZ reporter, 'Light' wraps to 'Light Blue') | Mucoidy 50 μM (drug at 50 μM, PAO581 with pLP170-PalgD-lacZ on PIA + X-gal) | Color 50 μM (drug at 50 μM, X-gal colour of PalgD-lacZ reporter, 'Light' wraps to 'Light Blue')
C[C@H]1COc2c(N3CCN(C)CC3)c(F)cc3c(=O)c(C(=O)O)cn1c23 [Levofloxacin] | Inhibited | Inhibited | Inhibited | – | – | – | –
COC(=O)C1=C(C)NC(C)=C(C(=O)OCC(C)C)C1c1ccccc1[N+](=O)[O-] (stereo not drawn) [Nisoldipine] | – | Yes | Yes | High | Blue | Inhibited | Light
